No constants are given. Whether binding was seen depends on the method and setting. Some binding calls cover weakened binding; strength is not graded here. Sequences can lack the tags named with a protein. One block for each binder: values may come before it.
What was measured:
Test in all cases: BLI
Rat EphB1-Fc protein = target: T1, Rat EphB1-Fc protein (rat, UniProt P09759 18-538)
T1 sequence (looked up): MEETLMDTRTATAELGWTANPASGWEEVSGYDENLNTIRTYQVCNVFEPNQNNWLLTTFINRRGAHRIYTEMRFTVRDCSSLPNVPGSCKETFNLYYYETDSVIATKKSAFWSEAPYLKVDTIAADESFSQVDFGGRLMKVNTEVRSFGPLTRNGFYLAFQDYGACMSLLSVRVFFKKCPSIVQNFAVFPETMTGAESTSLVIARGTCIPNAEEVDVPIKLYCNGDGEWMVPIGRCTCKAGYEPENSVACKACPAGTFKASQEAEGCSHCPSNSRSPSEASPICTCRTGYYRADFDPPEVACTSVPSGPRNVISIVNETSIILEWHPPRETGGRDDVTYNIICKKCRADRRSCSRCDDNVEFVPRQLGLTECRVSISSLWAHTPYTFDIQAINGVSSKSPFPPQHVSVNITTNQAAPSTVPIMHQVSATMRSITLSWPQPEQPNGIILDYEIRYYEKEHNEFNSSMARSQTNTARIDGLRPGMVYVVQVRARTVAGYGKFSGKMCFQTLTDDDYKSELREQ

Human EphB3-Fc = target: T2, Human EphB3-Fc (human, UniProt P54753 38-550)
T2 sequence (looked up): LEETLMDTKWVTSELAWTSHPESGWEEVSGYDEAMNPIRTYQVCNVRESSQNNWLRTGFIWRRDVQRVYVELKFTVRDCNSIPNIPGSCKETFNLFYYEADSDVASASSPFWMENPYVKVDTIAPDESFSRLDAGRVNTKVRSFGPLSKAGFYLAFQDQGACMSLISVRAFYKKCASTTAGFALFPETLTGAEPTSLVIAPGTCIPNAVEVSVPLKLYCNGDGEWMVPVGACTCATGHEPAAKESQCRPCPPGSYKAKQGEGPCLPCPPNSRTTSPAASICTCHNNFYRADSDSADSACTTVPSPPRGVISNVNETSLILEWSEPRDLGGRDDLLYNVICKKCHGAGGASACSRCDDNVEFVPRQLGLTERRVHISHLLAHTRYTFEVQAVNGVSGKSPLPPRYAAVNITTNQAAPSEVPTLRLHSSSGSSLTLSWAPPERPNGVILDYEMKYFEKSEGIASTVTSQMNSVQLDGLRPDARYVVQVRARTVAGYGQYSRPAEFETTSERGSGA

[1] = target: Human EphrinB2-Fc (human) (UniProt P52799)
[2] = target: T3, human EphrinB1-Fc (human) (UniProt P98172)
T3 sequence: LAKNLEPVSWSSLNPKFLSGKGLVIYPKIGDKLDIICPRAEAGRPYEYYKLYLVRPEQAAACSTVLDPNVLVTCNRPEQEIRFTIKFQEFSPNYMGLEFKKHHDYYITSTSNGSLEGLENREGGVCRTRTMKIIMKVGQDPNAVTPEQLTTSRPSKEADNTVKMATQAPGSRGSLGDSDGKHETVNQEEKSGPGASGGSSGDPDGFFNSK

binding (Rat EphB1-Fc protein): binds weakly
binding (Human EphB3-Fc): binds weakly
B1: Mouse EphrinB2-His protein (ligand, UniProt P52800 29-232, looked up)
chain: RSIVLEPIYWNSSNSKFLPGQGLVLYPQIGDKLDIICPKVDSKTVGQYEYYKVYMVDKDQADRCTIKKENTPLLNCARPDQDVKFTIKFQEFSPNLWGLEFQKNKDYYIISTSNGSLEGLDNQEGGVCQTRAMKILMKVGQDASSAGSARNHGPTRRPELEAGTNGRSSTTSPFVKPNPGSSTDGNSAGHSGNNLLGSEVALFA

binding [1]: binds weakly
binding [2]: binds
B2: Human EphB1-His (receptor, UniProt P54762 18-540)
chain: MEETLMDTRTATAELGWTANPASGWEEVSGYDENLNTIRTYQVCNVFEPNQNNWLLTTFINRRGAHRIYTEMRFTVRDCSSLPNVPGSCKETFNLYYYETDSVIATKKSAFWSEAPYLKVDTIAADESFSQVDFGGRLMKVNTEVRSFGPLTRNGFYLAFQDYGACMSLLSVRVFFKKCPSIVQNFAVFPETMTGAESTSLVIARGTCIPNAEEVDVPIKLYCNGDGEWMVPIGRCTCKPGYEPENSVACKACPAGTFKASQEAEGCSHCPSNSRSPAEASPICTCRTGYYRADFDPPEVACTSVPSGPRNVISIVNETSIILEWHPPRETGGRDDVTYNIICKKCRADRRSCSRCDDNVEFVPRQLGLTECRVSISSLWAHTPYTFDIQAINGVSSKSPFPPQHVSVNITTNQAAPSTVPIMHQVSATMRSITLSWPQPEQPNGIILDYEIRYYEKEHNEFNSSMARSQTNTARIDGLRPGMVYVVQVRARTVAGYGKFSGKMCFQTLTDDDYKSELREQLP

binding [1]: binds weakly
binding [2]: binds
B3: Human EphB2-His (receptor, UniProt P29323 19-543)
chain: VEETLMDSTTATAELGWMVHPPSGWEEVSGYDENMNTIRTYQVCNVFESSQNNWLRTKFIRRRGAHRIHVEMKFSVRDCSSIPSVPGSCKETFNLYYYEADFDSATKTFPNWMENPWVKVDTIAADESFSQVDLGGRVMKINTEVRSFGPVSRSGFYLAFQDYGGCMSLIAVRVFYRKCPRIIQNGAIFQETLSGAESTSLVAARGSCIANAEEVDVPIKLYCNGDGEWLVPIGRCMCKAGFEAVENGTVCRGCPSGTFKANQGDEACTHCPINSRTTSEGATNCVCRNGYYRADLDPLDMPCTTIPSAPQAVISSVNETSLMLEWTPPRDSGGREDLVYNIICKSCGSGRGACTRCGDNVQYAPRQLGLTEPRIYISDLLAHTQYTFEIQAVNGVTDQSPFSPQFASVNITTNQAAPSAVSIMHQVSRTVDSITLSWSQPDQPNGVILDYELQYYEKELSEYNATAIKSPTNTVTVQGLKAGAIYVFQVRARTVAGYGRYSGKMYFQTMTEAEYQTSIQEKLPL

Source: paper doi:10.64898/2025.12.08.693004 (bioRxiv, 2025)
